These results are taken from the supplement of paper PMC8256030.

This is one part of the list. Repeats in this data set agree poorly, so a single value says little.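 HEK293T cells were given each compound shortly before transfection with a reporter in which red mCherry is followed by the SARS-CoV-2 frameshift element and then GFP in the −1 frame, so GFP appears only after frameshifting.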

The subject of this assay is SARS-CoV-2 -1 PRF reporter mCherry-FSE-GFP(-1). The assay can be described thus: percent effect, decrease of GFP/mCherry ratio (-1 PRF reporter) relative to controls; higher = stronger frameshift inhibition. The following applies: 10 µM; 24 h; HEK293T.
On to `CC(C)OC(=O)[C@H](C)N[P@](=O)(OC[C@H]1O[C@@H](n2ccc(=O)[nH]c2=O)[C@](C)(F)[C@@H]1O)Oc1ccccc1` [Sofosbuvir], for which the percent effect was 0.561%.
Then `CCCSc1nc(N[C@@H]2C[C@H]2c2ccc(F)c(F)c2)c2nnn([C@@H]3C[C@H](OCCO)[C@@H](O)[C@H]3O)c2n1` [Brilinta], with -1.53%; and `COCCCN1CCC(NC(=O)c2cc(Cl)c(N)c3c2OCC3)CC1` [prucalopride], with -3.35%.
For the compound `O=C(O)c1ccccc1NCCc1ccccc1` [enfenamic acid], the percent effect was 0.0628%.
Then `CC(=O)OCC(=O)[C@@]12N=C(C)O[C@@H]1C[C@H]1[C@@H]3CCC4=CC(=O)C=C[C@]4(C)[C@H]3[C@@H](O)C[C@@]12C`, with 0.274%.
